Experimental data: paper PMC7426271

Protein sequences, listed by entry. Tags and fused reporters are not part of them.
UniProt Q92833: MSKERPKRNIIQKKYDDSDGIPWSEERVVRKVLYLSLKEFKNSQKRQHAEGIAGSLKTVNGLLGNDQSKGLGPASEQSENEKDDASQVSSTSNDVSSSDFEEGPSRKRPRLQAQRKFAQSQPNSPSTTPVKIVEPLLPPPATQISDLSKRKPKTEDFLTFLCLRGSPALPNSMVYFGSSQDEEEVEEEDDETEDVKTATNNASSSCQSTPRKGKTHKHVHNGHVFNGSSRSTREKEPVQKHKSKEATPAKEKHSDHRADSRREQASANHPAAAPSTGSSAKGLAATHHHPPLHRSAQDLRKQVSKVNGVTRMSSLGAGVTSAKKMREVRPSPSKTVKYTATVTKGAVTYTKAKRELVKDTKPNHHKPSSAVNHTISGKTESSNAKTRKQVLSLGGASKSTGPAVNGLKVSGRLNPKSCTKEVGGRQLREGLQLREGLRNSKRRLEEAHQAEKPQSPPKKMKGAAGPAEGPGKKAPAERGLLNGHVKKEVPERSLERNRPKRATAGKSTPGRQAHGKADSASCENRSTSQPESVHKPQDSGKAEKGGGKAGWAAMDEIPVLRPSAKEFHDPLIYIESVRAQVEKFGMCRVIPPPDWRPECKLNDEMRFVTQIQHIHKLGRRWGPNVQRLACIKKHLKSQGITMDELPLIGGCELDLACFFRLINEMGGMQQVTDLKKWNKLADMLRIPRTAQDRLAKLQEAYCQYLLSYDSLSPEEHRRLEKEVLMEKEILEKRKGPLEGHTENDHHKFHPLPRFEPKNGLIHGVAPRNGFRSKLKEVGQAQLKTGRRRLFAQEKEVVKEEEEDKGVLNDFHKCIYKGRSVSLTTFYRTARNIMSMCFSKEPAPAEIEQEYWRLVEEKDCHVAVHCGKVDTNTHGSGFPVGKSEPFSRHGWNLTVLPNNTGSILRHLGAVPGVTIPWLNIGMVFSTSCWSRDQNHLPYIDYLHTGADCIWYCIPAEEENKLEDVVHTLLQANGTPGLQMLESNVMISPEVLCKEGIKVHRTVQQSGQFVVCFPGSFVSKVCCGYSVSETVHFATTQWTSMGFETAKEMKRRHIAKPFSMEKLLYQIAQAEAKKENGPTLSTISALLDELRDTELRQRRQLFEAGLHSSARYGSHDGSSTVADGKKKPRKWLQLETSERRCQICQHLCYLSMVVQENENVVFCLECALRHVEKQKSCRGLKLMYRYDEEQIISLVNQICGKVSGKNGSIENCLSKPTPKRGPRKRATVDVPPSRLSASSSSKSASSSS
UniProt P67809: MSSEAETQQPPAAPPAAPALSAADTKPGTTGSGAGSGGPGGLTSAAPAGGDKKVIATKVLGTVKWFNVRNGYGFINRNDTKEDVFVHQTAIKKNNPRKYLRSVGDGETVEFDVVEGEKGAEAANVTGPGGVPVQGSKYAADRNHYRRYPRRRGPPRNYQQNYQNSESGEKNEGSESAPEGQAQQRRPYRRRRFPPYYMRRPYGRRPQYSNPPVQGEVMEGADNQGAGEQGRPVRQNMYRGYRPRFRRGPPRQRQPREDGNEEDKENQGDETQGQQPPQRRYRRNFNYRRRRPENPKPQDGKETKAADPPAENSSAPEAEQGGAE

Target: JARID2 (human (endogenous in H9 hESC and hNPC)) (UniProt Q92833)
Experiment: affinity purification with mass spectrometry; endogenous JARID2 immunoprecipitated (anti-JARID2) from H9 hESC nuclear extract, against IgG IP; three biological replicates

binding: binds
Substance: Y-box binding protein 1 (from UniProt P67809 1-324)

Results are given in words; binding and its absence hold for the method and conditions named. In cells and extracts the contact can be indirect. A yes stands for co-enrichment or nearness to the bait. Other partners may have been found.
